Reference: PMC6433952
No constants are given. Whether binding was seen depends on the method and setting. Binding seen in cells or lysates may run through a third protein. Some results given as binding are weak or reduced against the parent protein; the word gives no strength. Sequences can lack the tags named with a protein.

Target: T1, 3X FLAG-TRIM71 (UniProt Q1PSW8)
T1 sequence: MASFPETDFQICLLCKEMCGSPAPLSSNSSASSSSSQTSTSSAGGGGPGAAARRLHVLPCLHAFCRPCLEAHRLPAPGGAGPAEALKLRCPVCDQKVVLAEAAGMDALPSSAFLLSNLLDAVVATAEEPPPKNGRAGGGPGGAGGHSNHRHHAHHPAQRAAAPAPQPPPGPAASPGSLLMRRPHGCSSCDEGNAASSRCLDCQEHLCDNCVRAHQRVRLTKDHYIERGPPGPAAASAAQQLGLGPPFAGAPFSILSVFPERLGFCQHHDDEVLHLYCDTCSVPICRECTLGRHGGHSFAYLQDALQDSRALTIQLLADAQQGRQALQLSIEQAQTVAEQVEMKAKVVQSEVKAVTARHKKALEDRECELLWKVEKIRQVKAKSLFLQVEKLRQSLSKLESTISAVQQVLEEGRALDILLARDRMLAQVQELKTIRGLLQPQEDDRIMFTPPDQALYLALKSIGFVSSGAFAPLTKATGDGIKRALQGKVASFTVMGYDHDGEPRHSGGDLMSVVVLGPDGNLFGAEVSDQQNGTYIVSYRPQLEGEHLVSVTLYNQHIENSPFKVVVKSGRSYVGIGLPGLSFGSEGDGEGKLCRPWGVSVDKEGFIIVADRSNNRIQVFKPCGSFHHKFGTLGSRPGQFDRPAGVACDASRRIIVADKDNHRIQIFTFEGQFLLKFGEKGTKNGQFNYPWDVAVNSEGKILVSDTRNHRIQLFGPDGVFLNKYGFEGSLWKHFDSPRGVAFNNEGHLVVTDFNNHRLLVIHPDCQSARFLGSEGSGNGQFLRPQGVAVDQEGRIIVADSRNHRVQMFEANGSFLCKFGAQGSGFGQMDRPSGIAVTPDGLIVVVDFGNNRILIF
Assay: co-IP; HEK293 cells co-transfected with 3X FLAG-TRIM71 and 3X HA-SHCBP1, with or without Trincr1 expression vector; lysate in 50 mM Tris-HCl, 140 mM NaCl, 0.5% NP-40, 1 mM EDTA, 10% glycerol; FLAG antibody and protein G Dynabeads, 12 h at 4 °C; western blot

B1: 3X HA-SHCBP1 (protein, UniProt Q9Z179 1-668)
chain: MADDLRAGGVLEPIAMVPPRPDLAAEKEPASWKEGLFLDADPCSDQGYHANPGATVKTLIPEGKTPFPRIIQTNELLFYERFRAYQDYILADCKASEVKEFTVSFLEKVLEPSGWWAVWHTNVFEVLVEVTNVDFPSLKAVVRLAEPCIYESKLSTFTLANVKELLDLKEFHLPLQELWVVSDDSHEFHQMALAIEHVRFFYKHIWRSWDEEEEDEYDYFVRCVEPRLRLYYDILEDRVPSGLIVDYHNLLSQCEESYRKFLNLRSSLSNCNSDSEQENISMVEGLNLYSEIEQLKQKLKLIENPLLRYVFGYQKNSNIQGKGTRQNGQKVIHVVSSTMKTGLLRSLFKDRFCEESCKEETEIKFHSDLLSGINACYDGDTVIICPGHYVVHGTCSIADSIELEGYGLPDDIVIEKRGKGDTFVDCTGMDVKISGIKFIQHDSVEGILIIHHGKTTLENCVLQCETTGVTVRTSAELFMKNSDVYGAKGAGIEIYPGSKCTLTDNGIHHCKEGILIKDFLDEHYDIPKISMINNVIHNNEGYGVVLVKPTIFCDLQENTQDEINDNMVQKNKEADVTEGLDLEEMLQCVASKMEPYATADFNEQAKGNCEIINELLAISMQKGRMKKRLSELGITQADDNIMSQEMFIEIMGNQFKWNGKGSFGTFLY
- binding: binds
